This data set can be described thus: peptide synthesis. As to conditions: conjugation step.

The substance “Cyclo-(-Ac-Tyr-NMeAla-Asn-Pro-His-Glu-Hyp-Trp-Ser-Trp(Carboxymethyl)-NMeNle-NMeNle-Lys(NODA_NCS[^18F]AlF)-Cys-)-Gly-NH2” had a conjugation yield of 65%.

The values are drawn from patent US20230271923A1 (The Johns Hopkins University, priority 2020, published 2023).
